{"source": "PubChem BioAssay AID652243 | Drosophila RNAi Screening Center, 2013", "assay": "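Knock-downs that decrease or increase androgen receptor reporter signal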 (primary screen)", "cells": "Drosophila S2R+ cells", "knock-down reagent": "long dsRNA against Drosophila genes", "duration": "72 h (48 h, then 24 h hormone)", "conditions": "synthetic androgen R1881 at 10 nM for 24 h", "measurement": "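Per-well raw luminescence of the androgen-driven firefly reporter and of the Renilla control, two replicates each, without normalisation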", "reading the numbers": "firefly reporter light: higher = more light from androgen-responsive reporter; Renilla control light: higher = more constitutive control signal (cell number, transfection)", "rule for the call": "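Hit when the log firefly-to-Renilla ratio dropped or increased by a fixed fold versus the mean of GFP or LacZ controls across duplicate plates; lowering cut given as 1.5 and as 3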", "calls": "active = hit: reporter lowered or raised; inactive = no hit", "note": "In all, the deposit lists about 24,000 reagents; shown is an unselected part of those with a known target gene and a result. Of all reagents, 246 (1%) were called active. 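Plates not normalised; calls are printed but the firefly/Renilla ratio behind them is not deposited; fold cut for lowering reported inconsistently.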 Raw values are not corrected between plates. Reagents against one gene are numbered here. No sequences are given here. Not stated in the record: the amount of reagent."}
{"Target gene": "CG12780", "reagent": 1, "firefly reporter light, replicate 1": 5.24e5, "firefly reporter light, replicate 2": 3.82e5, "Renilla control light, replicate 1": 2.06e6, "Renilla control light, replicate 2": 1.72e6, "call": "inactive"}
{"Target gene": "CG8563", "reagent": 1, "firefly reporter light, replicate 1": 1.43e5, "firefly reporter light, replicate 2": 1.45e5, "Renilla control light, replicate 1": 9.94e5, "Renilla control light, replicate 2": 1.52e6, "call": "inactive"}
{"Target gene": "mthl11", "reagent": 1, "firefly reporter light, replicate 1": 1.51e5, "firefly reporter light, replicate 2": 73756, "Renilla control light, replicate 1": 27786, "Renilla control light, replicate 2": 1.56e5, "call": "inactive"}
{"Target gene": "mthl11", "reagent": 2, "firefly reporter light, replicate 1": 3.69e5, "firefly reporter light, replicate 2": 4.54e5, "Renilla control light, replicate 1": 4.51e5, "Renilla control light, replicate 2": 7.62e5, "call": "inactive"}
{"Target gene": "hfp", "reagent": 1, "firefly reporter light, replicate 1": 36607, "firefly reporter light, replicate 2": 59793, "Renilla control light, replicate 1": 6.23e5, "Renilla control light, replicate 2": 8.55e5, "call": "inactive"}
{"Target gene": "hfp", "reagent": 2, "firefly reporter light, replicate 1": 1.03e5, "firefly reporter light, replicate 2": 1.56e5, "Renilla control light, replicate 1": 9.37e5, "Renilla control light, replicate 2": 1.27e6, "call": "inactive"}
{"Target gene": "hfp", "reagent": 3, "firefly reporter light, replicate 1": 4.82e5, "firefly reporter light, replicate 2": 8.65e5, "Renilla control light, replicate 1": 1.64e6, "Renilla control light, replicate 2": 2.40e6, "call": "inactive"}
{"Target gene": "hfp", "reagent": 4, "firefly reporter light, replicate 1": 4.92e5, "firefly reporter light, replicate 2": 4.40e5, "Renilla control light, replicate 1": 6.01e5, "Renilla control light, replicate 2": 6.62e5, "call": "inactive"}
{"Target gene": "CG34287", "reagent": 1, "firefly reporter light, replicate 1": 7.59e5, "firefly reporter light, replicate 2": 6.69e5, "Renilla control light, replicate 1": 1.68e6, "Renilla control light, replicate 2": 1.89e6, "call": "inactive"}
{"Target gene": "Cul4", "reagent": 1, "firefly reporter light, replicate 1": 2.53e5, "firefly reporter light, replicate 2": 4.92e5, "Renilla control light, replicate 1": 9.34e5, "Renilla control light, replicate 2": 1.03e6, "call": "inactive"}
{"Target gene": "Cul4", "reagent": 2, "firefly reporter light, replicate 1": 2.21e5, "firefly reporter light, replicate 2": 2.11e5, "Renilla control light, replicate 1": 4.37e5, "Renilla control light, replicate 2": 5.36e5, "call": "inactive"}
{"Target gene": "Or98b", "reagent": 1, "firefly reporter light, replicate 1": 1.98e5, "firefly reporter light, replicate 2": 2.20e5, "Renilla control light, replicate 1": 3.09e6, "Renilla control light, replicate 2": 3.74e6, "call": "inactive"}
{"Target gene": "Or98b", "reagent": 2, "firefly reporter light, replicate 1": 5.35e5, "firefly reporter light, replicate 2": 4.73e5, "Renilla control light, replicate 1": 2.19e6, "Renilla control light, replicate 2": 2.14e6, "call": "inactive"}

2 entries from above, reformatted:
Target gene | reagent | firefly reporter light, replicate 1 | firefly reporter light, replicate 2 | Renilla control light, replicate 1 | Renilla control light, replicate 2 | call
mthl11 | 2 | 3.69e5 | 4.54e5 | 4.51e5 | 7.62e5 | inactive
hfp | 1 | 36607 | 59793 | 6.23e5 | 8.55e5 | inactive
